This assay can be described thus: qHTS Assay for Lipid Storage Modulators in Drosophila S3 Cells.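 For cell number change: cells counted by Cell Tracker Red CMTPX staining in the red channel.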 The following applies: BODIPY lipid droplet fluorescence, 18-24 h; for cell number change: measured here: cell count max response, cells fed with added oleic acid. Put shortly:
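Drosophila S3 cells got compounds at several concentrations plus oleic acid (400 uM solution). Laser-scanning cytometry with 488 nm excitation read lipid droplets at 500-530 nm and cells at 575-640 nm. Percent activity was relative to 20 uM Triacsin C.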

Where [1] appears, read: measured here: lipid fluorescence (Fed channel) AC50, cells fed with added oleic acid.
Setting [2] is: measured here: cell number channel AC50, cells fed with added oleic acid.

Molecules are shown by their SMILES. Some of the results follow. Further columns of the screen follow, without active or inactive calls. Most of these compounds were active or inconclusive in the main read-out, so they are no random draw. Words in brackets tell the shape of the fitted curve; partial curves, single points and poor fits give uncertain potencies.

In general, AC50 refers to the concentration at which the activity in the assay is half-maximal. Lower therefore signals activity at low concentration. Consider `Cc1ccc(N=Nc2cc(C)ccc2O)c(C)c1`, for which the AC50 under setting [1] was 29.1 µM [falling, single point].
On the same count and under the same terms, next, `CCC(=O)Nc1ccc(S(=O)(=O)c2ccc(NC(=O)CC)cc2)cc1`: 11.6 µM [falling, partial curve].
Consider `O=C(c1ccccc1)c1ccc(Cn2cc(CCCO)nn2)cc1`, for which the cell number change is -5.5%. Also, under setting [1], the AC50 is 6.51 µM [rising, single point].
For the compound `C=CCn1c(C)cc(C(=O)COC(=O)C2CC(=O)N(Cc3ccccc3)C2)c1C` (stereo not drawn), the cell number change came to 2.6%.
Take `Cc1cccc2c(=O)oc(-c3ccccc3Cl)nc12`: the cell number change was -11.3%. Under setting [1], the AC50 is 16.4 µM [rising, single point].
Consider `[O-][n+]1onc2c1CCc1[nH]c(-c3ccccc3)nc1-2`, for which the cell number change is -25%. In addition, the AC50 under setting [1] is 0.411 µM [falling, partial curve, poor fit].
For the compound `CN(CC(=O)Nc1ccc(F)c(F)c1F)C(=O)c1ccc2c(c1)NC(=O)CS2`, the cell number change is -32.8%. Further, under setting [2], the AC50 is 0.517 µM [falling, full curve].
With `COc1ccccc1N1CCN(C(CNS(=O)(=O)c2cccs2)c2cccnc2)CC1` (stereo not drawn), the cell number change came out at 130%. Moreover, the AC50 under setting [2] was 3.26 µM [rising, partial curve]. The concentration at half-maximal activity (AC50) under setting [1] was 2.06 µM [rising, partial curve].
For the compound `O=C(O)c1ccc(NC(=O)c2ccccc2NC(=O)c2cccc(F)c2)cc1`, the cell number change came out at 4.4%.
In the case of `Cc1cc(C)n(-c2nc(-c3ccccc3)cs2)n1`, the cell number change is 20.5%. In addition, the AC50 under setting [2] is 2.91 µM [rising, single point]. The AC50 under setting [1] was 9.2 µM [rising, partial curve].
Regarding `CCc1cc(C(=O)N2CCCC(C(=O)c3cccc4ccccc34)C2)n(C)n1` (stereo not drawn), the cell number change is -3.27%. The AC50 under setting [1] was 29.1 µM [falling, single point].
Turning to `Cc1ccc(NC(=O)CSCC(=O)Nc2ccccc2N2CCCC2)cc1`, the cell number change was determined as 10.7%. Also, the concentration at half-maximal activity (AC50) under setting [1] is 1.84 µM [rising, partial curve].
As to `O=C(NCCSc1ccccc1)c1ccccc1Cl`, under setting [2], the AC50 was 6.51 µM [rising, partial curve, poor fit].
In the case of `O=C(c1ccc(N2CCOCC2)c([N+](=O)[O-])c1)N1CCCCC1`, the cell number change stood at 11%. For the same compound, the AC50 under setting [2] was 0.231 µM [rising, full curve, poor fit].
Consider `CC(=O)NC1=NN(C(C)=O)C(C)(CCS(=O)(=O)c2ccc(Cl)c(Cl)c2)S1` (stereo not drawn), for which the cell number change is -26.3%. Besides, under setting [2], the AC50 is 0.206 µM [falling, full curve, poor fit]. The AC50 under setting [1] is 0.461 µM [falling, full curve].
Take `COc1ccc(NC(=O)C2CCN(S(=O)(=O)c3ccc4c(c3)CC(C)N4C(C)=O)CC2)c(OC)c1` (stereo not drawn): the cell number change was found to be 33.1%. Further, the AC50 under setting [2] is 9.2 µM [rising, partial curve].
With `CN(C)Cc1ccccc1C1(O)c2ccccc2CSc2ccccc21` (stereo not drawn), the cell number change stood at 42.2%. Under setting [2], the AC50 is 29.1 µM [rising, single point].
With `Cc1cccc(NC(=O)CC2S/C(=N/c3nccs3)N(C)C2=O)c1` (stereo not drawn), the cell number change was -1.61%. Also, the AC50 under setting [1] was 4.61 µM [rising, single point].
In the case of `COc1ccc(-c2nc(CN(Cc3cnn(C)c3)C(C)C)c(C)o2)c(OC)c1`, the cell number change was 8%. Also, the AC50 under setting [1] is 0.058 µM [falling, full curve].
Consider `CC(=O)c1ccc(OCCCC(=O)N(CCC2=CCCCC2)c2c(N)n(Cc3ccccc3)c(=O)[nH]c2=O)cc1`, for which the cell number change was 33.2%. In addition, the AC50 under setting [2] was 20.6 µM [rising, single point].
Turning to `CN(Cc1ccc(Cl)cc1)C(=O)c1cc(S(=O)(=O)N2CCOCC2)ccc1N1CCCC1`, under setting [1], the AC50 was 3.26 µM [rising, single point].
On to `COc1ccccc1N1CCN(CCCNc2cc(=O)n(C)c(=O)n2C)CC1`, for which the cell number change was found to be 6.24%. Moreover, the AC50 under setting [2] was 0.116 µM [rising, full curve, poor fit].
As for `Cc1ccc(NC(=O)Cn2sc3nc(C)cc(C)c3c2=O)c(Cl)c1`, the cell number change is -66.1%. The AC50 under setting [1] is 1.64 µM [falling, partial curve, poor fit].
For `COc1ccc(CCNC(=O)C(=O)NCC2OCCN2S(=O)(=O)c2ccc(OC)c(OC)c2)cc1OC` (stereo not drawn), the cell number change was -2.02%. Further, the concentration at half-maximal activity (AC50) under setting [1] was 6.51 µM [rising, single point].
Regarding `O=C(CNC(=O)C1CCCCC1)Nc1ccc(Cl)cc1`, the cell number change was -12.2%. Under setting [1], the AC50 is 20.6 µM [rising, partial curve].
As for `Cc1ccc(S(=O)(=O)N2CCCC2C(=O)NCCc2nc3ccccc3[nH]2)cc1` (stereo not drawn), the cell number change was -26.9%. The AC50 under setting [1] is 29.1 µM [falling, single point].
`COc1ccc(C(=O)C[n+]2ccc(N(C)C)cc2)cc1`: the cell number change came out at 40.4%. For the same compound, the AC50 under setting [1] was 29.1 µM [rising, single point].
As for `O=C1NC2(CCCCC2)C(=O)N1c1ccccc1`, the AC50 under setting [2] is 0.58 µM [falling, single point].
As to `COc1ccc(-c2csc(=Nc3ccccc3)n2CCO)cc1`, the cell number change was -32.7%. The AC50 under setting [2] is 32.6 µM [falling, single point]. The AC50 under setting [1] is 18.4 µM [falling, single point].
For the compound `CC1CC(C)CN(C(=O)c2ccc3c(c2)OCCO3)C1` (stereo not drawn), the cell number change was -16.7%.
As to `COc1ccccc1N1C[C@@H]2C[C@@H](c3ccco3)N3CCC[C@@]23C1=O`, the cell number change was -16.1%. Besides, the AC50 under setting [1] was 5.17 µM [falling, full curve, poor fit].
On to `O=C(CNC(=O)c1cccc(Br)c1)N/N=C/c1cccs1`, for which the cell number change was 16.1%. Also, the AC50 under setting [1] was 29.1 µM [rising, single point].
For the compound `CN(C)Cc1c(C(=O)N/N=C/c2cccc(OCc3c(F)cccc3Cl)c2)nnn1-c1nonc1N`, the AC50 is, setting by setting: under setting [2], 1.03 µM [falling, partial curve]; under setting [1], 29.1 µM [falling, single point].
With `COC(=O)NNC(=O)CCCOc1ccc(Cl)cc1Cl`, the concentration at half-maximal activity (AC50) under setting [2] was 1.84 µM [rising, partial curve, poor fit].
As to `C/C=C(/C)C(=O)O[C@@H]1[C@H](OC(=O)C=C(C)C)c2c(ccc3ccc(=O)oc23)OC1(C)C`, the cell number change is 11.6%. Further, under setting [1], the AC50 is 0.00651 µM [falling, full curve, poor fit].
In the case of `COc1ccccc1C(=O)O/N=C(/C)c1ccc(N2C(=O)C3CCCCC3C2=O)cc1` (stereo not drawn), the cell number change turned out to be 8.47%. In addition, the AC50 under setting [2] is 6.51 µM [rising, single point].
For the compound `COc1cccc(C(C(=O)NC2CCCCC2)N(C(=O)c2cccs2)c2ccc3c(c2)OCO3)c1` (stereo not drawn), the cell number change is 19.4%. In addition, the AC50 under setting [1] is 7.31 µM [falling, single point].
Consider `O=C(COC(=O)c1cnccn1)NCCc1ccccc1`, for which the cell number change is -35.5%. Moreover, the AC50 under setting [2] was 29.1 µM [falling, single point].
Regarding `CCC1CCC/C1=N\NC(=O)c1cc(C)[nH]n1` (stereo not drawn), the cell number change amounted to 41.9%. Further, the half-maximal activity concentration (AC50) under setting [2] was 18.4 µM [rising, partial curve, poor fit]. In addition, the AC50 under setting [1] is 18.4 µM [rising, single point].
As for `CCCC1CCC(C(=O)Nn2cnc3ccccc3c2=O)CC1` (stereo not drawn), the AC50 under setting [1] is 6.51 µM [falling, partial curve, poor fit].
Regarding `Cc1ccc(-c2nc(C3CCN(S(C)(=O)=O)CC3)no2)cc1`, the cell number change worked out at 12.5%.
As for `CCN(CCCNC(=O)c1cn(CC)c2ccc(S(=O)(=O)N(C)C)cc2c1=O)c1cccc(C)c1`, the cell number change came out at 17.7%. For the same compound, the AC50 under setting [1] was 0.411 µM [rising, full curve].
`OCCC1CN(CC#Cc2ccccc2)CCN1Cc1ccccc1F` (stereo not drawn): the cell number change was -7.14%.
Consider `CCN1CCc2c(sc(NC(=O)Nc3ccc(Cl)c(Cl)c3)c2C(N)=O)C1`, for which the cell number change was -2.09%. Also, the AC50 under setting [1] was 0.517 µM [falling, full curve].
Consider `O=C(CN(Cc1ccc(Cl)cc1)C(=O)CNS(=O)(=O)c1ccc(F)cc1)NCC1CCCO1` (stereo not drawn), for which the cell number change was found to be 2.56%. Moreover, under setting [1], the AC50 is 0.116 µM [rising, single point].
On to `COc1ccc([C@@H]2CC=C(C(=O)O)[C@H](c3cccc(Cl)c3)N2S(=O)(=O)c2ccc(Cl)cc2)cc1`, for which the AC50 under setting [1] was 18.4 µM [rising, single point].
With `Cc1ccc(C(NC(=O)/C=C\c2ccc3c(c2)OCO3)C(=O)Nc2ccc3c(c2)OCO3)cc1` (stereo not drawn), the cell number change was -51.2%. Further, under setting [2], the concentration at half-maximal activity (AC50) was 20.6 µM [falling, single point]. For the same compound, under setting [1], the AC50 is 2.91 µM [falling, partial curve].
For the compound `CCc1c(C)sc(NC(=O)c2cc(C)no2)c1C#N`, the AC50 under setting [2] was 4.11 µM [falling, single point].
For the compound `Oc1ccccc1/C=N/NC(=S)NCCc1ccccc1`, the cell number change was -60.1%. For the same compound, the AC50 under setting [2] is 20.6 µM [falling, partial curve]. For the same compound, the concentration at half-maximal activity (AC50) under setting [1] was 32.6 µM [falling, single point].
Take `COc1ccc(C2(C)NC(=O)N(CC(=O)Nc3ccc(C)cc3Br)C2=O)cc1OC` (stereo not drawn): the cell number change was found to be 0.901%. For the same compound, the AC50 under setting [1] was 11.6 µM [rising, single point].
`Cc1ccc(-c2cc(C(=O)Nc3nn[nH]n3)c3ccccc3n2)c(C)c1`: the cell number change is 2.43%. Besides, the concentration at half-maximal activity (AC50) under setting [1] is 0.461 µM [falling, single point].
For the compound `COc1ccccc1N1CCN(C(=O)c2c(-c3c(F)cccc3Cl)noc2C)CC1`, the cell number change is -1.1%. Moreover, the AC50 under setting [1] is 29.1 µM [rising, single point].
On to `Cc1c(NC(=O)C(C)Sc2nccn2C)c(=O)n(-c2ccccc2)n1C` (stereo not drawn), for which the cell number change is -9.33%. In addition, the AC50 under setting [1] was 29.1 µM [falling, single point].
As for `C[C@H](OC(=O)n1ccnc1)[C@@H]1O[C@@]2(C)CCC[C@@H]1O2`, the cell number change came out at 3.25%. Besides, the AC50 under setting [2] is 3.66 µM [falling, single point]. In addition, the AC50 under setting [1] was 2.91 µM [falling, single point].
With `CS/C(=C/[N+](=O)[O-])Nc1cccc2c1C(C)CC2(C)C` (stereo not drawn), the cell number change was 6.56%.
The same measure, in the same setting: next, `Brc1ccc2nc3c(n2c1)CCCC3`: 3.43%.
Consider `CCSc1nc(O)cc(=O)n1CC`, for which the cell number change is 0.226%. The AC50 under setting [2] is 1.3 µM [rising, partial curve]. The AC50 under setting [1] was 1.3 µM [rising, partial curve].
In the case of `COc1cccc(C2CC(c3cccc(Br)c3)n3nc(N)nc3N2)c1` (stereo not drawn), the cell number change came out at 45.1%. Under setting [2], the AC50 was 2.91 µM [rising, partial curve]. In addition, the AC50 under setting [1] was 1.16 µM [rising, partial curve].
For `CCN(CC)CC(C(=O)N(CC)CC)P(=O)(c1ccccc1)c1ccccc1` (stereo not drawn), the cell number change was -26.8%. Under setting [2], the concentration at half-maximal activity (AC50) is 0.58 µM [falling, full curve, poor fit]. Further, the AC50 under setting [1] was 6.51 µM [falling, partial curve].

(Values after PubChem BioAssay AID2685 (National Center for Advancing Translational Sciences (NCATS), 2010).)
